Data taken from ChEMBL document CHEMBL3988442, “University of Dundee, Small-Polar-MMV Screening Library” (2021).

Chains of the proteins cited; added tags and fusions are not shown. Residues count along the entry.
UniProt Q4DA54, 1-478: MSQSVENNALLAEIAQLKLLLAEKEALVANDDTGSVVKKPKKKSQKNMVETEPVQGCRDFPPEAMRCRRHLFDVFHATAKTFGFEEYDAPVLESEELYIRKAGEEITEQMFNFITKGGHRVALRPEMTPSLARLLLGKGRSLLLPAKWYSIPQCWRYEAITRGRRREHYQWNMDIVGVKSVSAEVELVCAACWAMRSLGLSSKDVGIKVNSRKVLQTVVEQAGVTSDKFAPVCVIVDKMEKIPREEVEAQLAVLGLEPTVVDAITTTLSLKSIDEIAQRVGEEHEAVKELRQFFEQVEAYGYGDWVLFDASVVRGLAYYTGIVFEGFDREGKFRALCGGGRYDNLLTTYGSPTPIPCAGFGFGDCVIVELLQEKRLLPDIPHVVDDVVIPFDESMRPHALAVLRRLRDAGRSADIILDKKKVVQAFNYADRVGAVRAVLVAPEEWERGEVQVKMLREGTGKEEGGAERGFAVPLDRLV
UniProt P9WNZ1, whole entry: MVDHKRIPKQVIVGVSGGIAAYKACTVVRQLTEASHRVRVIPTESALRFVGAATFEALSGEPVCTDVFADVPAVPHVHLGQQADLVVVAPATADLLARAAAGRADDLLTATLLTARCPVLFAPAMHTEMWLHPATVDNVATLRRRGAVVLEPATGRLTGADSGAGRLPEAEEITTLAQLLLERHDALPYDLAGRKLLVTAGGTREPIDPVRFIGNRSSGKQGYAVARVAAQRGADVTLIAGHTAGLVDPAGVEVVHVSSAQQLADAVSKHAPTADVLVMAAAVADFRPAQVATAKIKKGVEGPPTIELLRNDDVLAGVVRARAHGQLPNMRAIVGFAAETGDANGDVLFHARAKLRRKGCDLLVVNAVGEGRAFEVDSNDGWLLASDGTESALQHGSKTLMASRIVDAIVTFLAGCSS
UniProt P9WPC5, whole entry: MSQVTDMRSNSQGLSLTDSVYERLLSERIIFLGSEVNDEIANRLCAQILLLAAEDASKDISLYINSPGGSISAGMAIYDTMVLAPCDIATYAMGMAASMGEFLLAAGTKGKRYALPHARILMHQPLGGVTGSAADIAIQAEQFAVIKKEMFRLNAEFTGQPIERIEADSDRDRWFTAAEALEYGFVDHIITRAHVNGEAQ
UniProt P9WPC3, whole entry partner: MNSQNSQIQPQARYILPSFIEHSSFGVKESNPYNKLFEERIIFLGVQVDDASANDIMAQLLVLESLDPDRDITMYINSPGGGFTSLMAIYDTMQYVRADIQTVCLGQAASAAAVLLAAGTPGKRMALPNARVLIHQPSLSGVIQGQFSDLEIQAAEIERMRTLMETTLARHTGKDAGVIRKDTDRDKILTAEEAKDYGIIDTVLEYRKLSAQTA
UniProt Q8IDJ8, 1-583: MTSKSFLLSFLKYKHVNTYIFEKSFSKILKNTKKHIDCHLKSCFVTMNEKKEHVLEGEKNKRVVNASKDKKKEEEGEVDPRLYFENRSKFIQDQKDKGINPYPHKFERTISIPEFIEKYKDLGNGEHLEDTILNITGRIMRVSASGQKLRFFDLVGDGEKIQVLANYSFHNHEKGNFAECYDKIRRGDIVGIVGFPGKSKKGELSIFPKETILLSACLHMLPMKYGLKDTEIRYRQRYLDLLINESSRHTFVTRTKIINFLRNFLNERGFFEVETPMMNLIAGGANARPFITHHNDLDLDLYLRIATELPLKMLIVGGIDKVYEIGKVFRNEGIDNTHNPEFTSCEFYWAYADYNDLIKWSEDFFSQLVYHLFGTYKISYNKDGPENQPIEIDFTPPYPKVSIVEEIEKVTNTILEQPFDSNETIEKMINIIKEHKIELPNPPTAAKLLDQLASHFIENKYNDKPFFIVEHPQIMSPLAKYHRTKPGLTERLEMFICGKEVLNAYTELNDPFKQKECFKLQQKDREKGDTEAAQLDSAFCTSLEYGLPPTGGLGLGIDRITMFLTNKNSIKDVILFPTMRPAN

The filed quantity is “Percent Effect” (%).
The record does not define 0% and 100%; most values in the screen are far below 50% and negative numbers occur (in some assays of this library far below -100).
This is an unselected part of the compounds tested.
Two or more numbers in one place are separate tests of the same structure; such repeats can differ widely.

Leishmania in macrophages: 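Cell assay of Leishmania donovani living inside macrophages; the read-out is not stated. Tested at 30 µM. Higher reads as stronger inhibition (inferred: compounds with an IC50 in retests scored well above the rest). Size under these conditions: about 69,000 compounds, about 1,000 of them at 50% or above in at least one test.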
TcHisRS: 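Histidine-tRNA ligase, Trypanosoma cruzi CL Brener (UniProt Q4DA54). Enzyme assay of histidyl-tRNA synthetase; the read-out is not stated. Tested at 30 µM. Direction is inferred from retests: higher values go with stronger inhibition. Size under these conditions: about 69,000 compounds, about 31 of them at 50% or above in at least one test.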
CoaBC: 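Enzyme assay of CoaBC with a phosphate dye (Biomol Green) read at 650 nm. Target: Coenzyme A biosynthesis protein CoaBC, Mycobacterium tuberculosis (UniProt P9WNZ1). Tested at 30 µM. Direction is inferred from only a few compounds that gave an IC50; most scored high, so higher reads as stronger inhibition. Most strong results did not repeat in a second test. Size under these conditions: about 67,000 compounds, about 40 of them at 50% or above in at least one test.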
ClpP1P2: 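ClpP1P2, Mycobacterium tuberculosis (UniProt P9WPC5 and UniProt P9WPC3). Protease assay of ClpP1P2, read by the AMC dye that it sets free. Concentration: 50 µM. Direction is inferred from only a few compounds that gave an IC50; most scored high, so higher reads as stronger inhibition. Most other retested compounds had strongly negative values. Size under these conditions: about 69,000 compounds, about 10 of them at 50% or above in at least one test.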
PfKRS1: 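Enzyme assay of the cytosolic lysyl-tRNA synthetase in 384-well plates, read by luminescence. Target: Lysine-tRNA ligase, Plasmodium falciparum 3D7 (UniProt Q8IDJ8). Tested at 30 µM. Higher reads as stronger inhibition, judged from the few compounds that gave an IC50. Of about 69,000 compounds tested this way, about 49 (0.071%) reached 50% or more in at least one test.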

* Cc1cc(NC(=O)CNC2CCCN(c3cccnn3)C2)on1 (configuration not stated) | Leishmania in macrophages: -28.88%; TcHisRS: 10.6%; CoaBC: 6.335%; ClpP1P2: 1.311%; PfKRS1: -0.6199%
* COCCC(=O)N1CCCC1c1csc(Nc2ncccn2)n1 (configuration not stated) | Leishmania in macrophages: 7.67% & 1.189%; TcHisRS: 12.09%; CoaBC: 4.369%; ClpP1P2: 7.191%; PfKRS1: 5.003%
* COc1ccc(C2CCCN2S(=O)(=O)N(C)C)cc1 (configuration not stated) | Leishmania in macrophages: -53.95%; TcHisRS: 2.632%; CoaBC: 8.152%; ClpP1P2: 6.023%; PfKRS1: 5.048%
* CNC(=O)CN1CCOCC2(CCCN(CCc3ccccc3)C2)C1.O=C(O)C(F)(F)F.O=C(O)C(F)(F)F (configuration not stated) | Leishmania in macrophages: -3.568%
* COCCN(Cc1ccccc1)Cc1nc(-c2ccsc2)no1 | Leishmania in macrophages: 22.89%; TcHisRS: 2.941%; CoaBC: 0.4878%; ClpP1P2: -2.857%; PfKRS1: 3.172%
* c1ccc(CCc2n[nH]c(C3CCOC3)n2)cc1 (configuration not stated) | Leishmania in macrophages: 18.75%; TcHisRS: -16.74%; CoaBC: 8.971%; ClpP1P2: -10.14%; PfKRS1: 9.574%
* O=C(C1CC1)N1CCC2(CCN(Cc3cccc(F)c3)CC2)CC1 | TcHisRS: 3.483%; CoaBC: 0.3226%; ClpP1P2: -2.87%; PfKRS1: 2.153%
* Cc1noc(CCNC(=O)c2ccc(Br)c(S(=O)(=O)N(C)C)c2)n1 | Leishmania in macrophages: -9.741%; TcHisRS: 3.922%; CoaBC: -0.4878%; ClpP1P2: 7.264%; PfKRS1: -3.535%
* O=C(NCCSCc1cccs1)C1CCCN(C(=O)N2CCCC2)C1 (configuration not stated) | Leishmania in macrophages: 0.01349%; TcHisRS: 9.677%; CoaBC: 3.14%; ClpP1P2: -0.6688%; PfKRS1: 0.06095%
* CCN(Cc1cccc2c1OCO2)C(=O)NC1CC1 | Leishmania in macrophages: 23.33%; TcHisRS: 2.662%; CoaBC: 1.054%; ClpP1P2: -6.653%; PfKRS1: 10.78%
* COc1ccccc1CNc1c(N2CCN(C(C)=O)CC2)c(=O)c1=O | Leishmania in macrophages: 13.14%; TcHisRS: 3.093%; CoaBC: -3.302%; ClpP1P2: 14.18%; PfKRS1: 2.466%
* CCN1CCC2(CCC1=O)CN(c1ccnc(SC)n1)CCN2C (configuration not stated) | Leishmania in macrophages: 5.125%; TcHisRS: 2.905%; CoaBC: 0.4464%; ClpP1P2: -9.99%; PfKRS1: 5.339%
* CN(C)CCOCC1CN(Cc2ccncc2)Cc2nnn(C)c21.O=C(O)C(F)(F)F.O=C(O)C(F)(F)F.O=C(O)C(F)(F)F (configuration not stated) | Leishmania in macrophages: 8.976%
* Cc1nc(C(=O)N2CCOCC2)cc(N2CCC(C(N)=O)CC2)n1 | Leishmania in macrophages: 3.665%; TcHisRS: -0.8772%; CoaBC: 10.29%; ClpP1P2: 10.93%; PfKRS1: 3.188%
* Cc1cc(C)n(CC2CCCCN2CC(=O)N(C)Cc2ccco2)n1 (configuration not stated) | Leishmania in macrophages: -27.36%; TcHisRS: -2.521%; CoaBC: 15.33%; ClpP1P2: -3.824%; PfKRS1: 4.256%
* CCCc1nc(C)c(CN2CC3(CCOC3)CCC2=O)s1 (configuration not stated) | Leishmania in macrophages: 31.29%; TcHisRS: 7.792%; CoaBC: 2.195%; ClpP1P2: -3.455%; PfKRS1: -1.651%
* CCn1ccc2ccnc(CC3CN(C(=O)Cn4ccnc4C)C3)c21.O=CO | Leishmania in macrophages: -0.8194%
* CCOCc1cc(CNC2CCCc3c2cnn3CC)ccc1OC (configuration not stated) | Leishmania in macrophages: 17.67%; TcHisRS: 1.143%; CoaBC: -0.5249%; ClpP1P2: -22.22%; PfKRS1: -0.9734%
* CC(C)(C)c1ncc(CNc2ccccc2SCCC(N)=O)s1 | Leishmania in macrophages: -11.51%; TcHisRS: 3.067%; CoaBC: 0.3841%; ClpP1P2: 14.21%; PfKRS1: 3.137%
* c1cnnc(NCC2CN(CCn3cccn3)CCO2)c1 (configuration not stated) | Leishmania in macrophages: -2.521%; TcHisRS: 8.235%; CoaBC: -1.474%; ClpP1P2: 7.013%; PfKRS1: 3.034%
* Cc1ncc(C(=O)NC2CCc3nccn3C2)c(C(C)C)n1 (configuration not stated) | Leishmania in macrophages: 25.71%; TcHisRS: 7.289%; CoaBC: 6.005%; ClpP1P2: -26.6%; PfKRS1: 0.5148%
* Cc1cc(NC(=O)CCn2nc(C)c3ccccc32)n(C)n1 | Leishmania in macrophages: -1.516%; TcHisRS: -0.4464%; CoaBC: 3.827%; ClpP1P2: -16.97%; PfKRS1: 6.759%
* N#Cc1ccc(CNC(=O)NC2CCN(CC(F)(F)F)C2)cc1 (configuration not stated) | Leishmania in macrophages: 4.97%; TcHisRS: 0%; CoaBC: -1.717%; ClpP1P2: 6.577%; PfKRS1: 0.8565%